Some of these results come from one statement about several compounds together. For part of these data: At least one compound was matched to its structure with a doubt left.
Tests used:
Assay type in all cases: in vivo
[1] = tested on: Spodoptera littoralis; experiment: Spodoptera littoralis (Egyptian Cotton Leafworm) cotton leaf disc spray test; conditions: 200 ppm spray on cotton leaf discs, L1 larvae, mortality, feeding behavior, growth regulation 3 DAT
[2] = tested on: Heliothis virescens; experiment: Heliothis virescens (Tobacco Budworm) egg test on artificial diet; conditions: 200 ppm (concentration in well 18 ppm), eggs 0-24 h old on artificial diet, 4 days; egg mortality, larval mortality, growth regulation
[3] = tested on: Plutella xylostella; experiment: Plutella xylostella (Diamond Back Moth) artificial diet MTP test; conditions: 200 ppm (concentration in well 18 ppm), L2 larvae, 6 days, larval mortality, growth regulation
[4] = tested on: Diabrotica balteata; experiment: Diabrotica balteata (Corn Root Worm) artificial diet MTP test; conditions: 200 ppm (concentration in well 18 ppm), L2 larvae, 5 days, larval mortality, growth regulation
[5] = tested on: Thrips tabaci; experiment: Thrips tabaci (Onion Thrips) sunflower leaf disc spray test; conditions: 200 ppm spray on sunflower leaf discs, population of mixed ages, 7 days; mortality
[6] = tested on: Tetranychus urticae; experiment: Tetranychus urticae (Two-Spotted Spider Mite) bean leaf disc spray test; conditions: 200 ppm spray on bean leaf discs, mite populations of mixed ages, 8 days; egg, larval and adult mortality

CCc1cc(C(F)(C(F)(F)F)C(F)(F)C(F)(F)F)cc(C)c1NC(=O)c1cccc(NC(=O)c2ccc(Br)o2)c1OC (stereo not drawn) [A12]
at least 80%: control of Spodoptera littoralis [1] | control of Heliothis virescens [2] | control of Plutella xylostella [3] | control of Diabrotica balteata [4] | control of Thrips tabaci [5]

CCc1cc(C(F)(C(F)(F)F)C(F)(F)C(F)(F)F)cc(C)c1NC(=O)c1cccc(NC(=O)c2ncc(C(F)(F)F)cc2Cl)c1OC (stereo not drawn) [A14]
at least 80%: control of Spodoptera littoralis [1] | control of Heliothis virescens [2] | control of Plutella xylostella [3] | control of Thrips tabaci [5]

CCc1cc(C(F)(C(F)(F)F)C(F)(F)C(F)(F)F)cc(C)c1NC(=O)c1cccc(NC(=O)c2cccc(C(F)(F)F)c2F)c1OC (stereo not drawn) [A15]
at least 80%: control of Spodoptera littoralis [1] | control of Heliothis virescens [2] | control of Plutella xylostella [3] | control of Diabrotica balteata [4] | control of Thrips tabaci [5]

COc1c(NC(=O)c2ccc([N+](=O)[O-])c(OC(C)=O)c2)cccc1C(=O)Nc1c(Cl)cc(C(F)(C(F)(F)F)C(F)(F)C(F)(F)F)cc1Br (stereo not drawn) [B171]
at least 80%: control of Heliothis virescens [2] | control of Plutella xylostella [3] | control of Tetranychus urticae [6]

COc1c(NC(=O)c2ccc(C#N)cc2F)cccc1C(=O)Nc1c(Cl)cc(C(F)(C(F)(F)F)C(F)(F)C(F)(F)F)cc1Cl (stereo not drawn) [C31]
at least 80%: control of Spodoptera littoralis [1] | control of Heliothis virescens [2] | control of Plutella xylostella [3] | control of Diabrotica balteata [4] | control of Thrips tabaci [5]

COc1c(NC(=O)c2cccc(Cl)c2C)cccc1C(=O)Nc1c(Cl)cc(C(F)(C(F)(F)F)C(F)(F)C(F)(F)F)cc1Cl (stereo not drawn) [C32]
at least 80%: control of Spodoptera littoralis [1] | control of Heliothis virescens [2] | control of Plutella xylostella [3] | control of Diabrotica balteata [4]

COc1c(NC(=O)c2cccnc2F)cccc1C(=O)Nc1c(Cl)cc(C(F)(C(F)(F)F)C(F)(F)C(F)(F)F)cc1Cl (stereo not drawn) [C34]
at least 80%: control of Spodoptera littoralis [1] | control of Heliothis virescens [2] | control of Plutella xylostella [3] | control of Diabrotica balteata [4]

COc1c(NC(=O)c2ccc([N+](=O)[O-])c(C)c2)cccc1C(=O)Nc1c(Cl)cc(C(F)(C(F)(F)F)C(F)(F)C(F)(F)F)cc1Cl (stereo not drawn) [C35]
at least 80%: control of Spodoptera littoralis [1] | control of Heliothis virescens [2] | control of Plutella xylostella [3] | control of Diabrotica balteata [4]

COc1c(C(=O)Nc2c(Cl)cc(C(F)(C(F)(F)F)C(F)(F)C(F)(F)F)cc2Cl)cccc1N(C)C(=O)c1ccccc1F (stereo not drawn) [D7]
at least 80%: control of Spodoptera littoralis [1] | control of Heliothis virescens [2] | control of Plutella xylostella [3] | control of Diabrotica balteata [4]

COc1c(C(=O)Nc2c(Cl)cc(C(F)(C(F)(F)F)C(F)(F)C(F)(F)F)cc2Cl)cccc1N(C)C(=O)c1ccccc1Cl (stereo not drawn) [D9]
at least 80%: control of Spodoptera littoralis [1] | control of Plutella xylostella [3] | control of Diabrotica balteata [4] | control of Thrips tabaci [5]

COc1c(C(=O)Nc2c(Cl)cc(C(F)(C(F)(F)F)C(F)(F)C(F)(F)F)cc2Cl)cccc1N(C)C(=O)c1ccc(C)cc1 (stereo not drawn) [D10]
at least 80%: control of Spodoptera littoralis [1] | control of Heliothis virescens [2] | control of Plutella xylostella [3] | control of Diabrotica balteata [4]

COc1c(C(=O)Nc2c(Cl)cc(C(F)(C(F)(F)F)C(F)(F)C(F)(F)F)cc2Cl)cccc1N(C)C(=O)c1cc(Cl)ccc1F (stereo not drawn) [D12]
at least 80%: control of Spodoptera littoralis [1] | control of Heliothis virescens [2] | control of Plutella xylostella [3] | control of Diabrotica balteata [4] | control of Thrips tabaci [5]

COc1c(C(=O)Nc2c(Cl)cc(C(F)(C(F)(F)F)C(F)(F)C(F)(F)F)cc2Cl)cccc1N(C)C(=O)c1ccc(OC(F)(F)F)cc1 (stereo not drawn) [D15]
at least 80%: control of Spodoptera littoralis [1] | control of Heliothis virescens [2] | control of Plutella xylostella [3] | control of Diabrotica balteata [4] | control of Thrips tabaci [5]

COc1c(C(=O)Nc2c(Cl)cc(C(F)(C(F)(F)F)C(F)(F)C(F)(F)F)cc2Cl)cccc1N(C)C(=O)c1ccc(C(F)(F)F)cc1 (stereo not drawn) [D17]
at least 80%: control of Spodoptera littoralis [1] | control of Diabrotica balteata [4] | control of Thrips tabaci [5]

COc1c(C(=O)Nc2c(Cl)cc(C(F)(C(F)(F)F)C(F)(F)C(F)(F)F)cc2Cl)cccc1N(C)C(=O)c1cccc(F)c1F (stereo not drawn) [D23]
at least 80%: control of Spodoptera littoralis [1] | control of Heliothis virescens [2] | control of Plutella xylostella [3] | control of Diabrotica balteata [4] | control of Thrips tabaci [5]

CCN(C(=O)c1ccccc1F)c1cccc(C(=O)Nc2c(Cl)cc(C(F)(C(F)(F)F)C(F)(F)C(F)(F)F)cc2Cl)c1OC (stereo not drawn) [D26]
at least 80%: control of Spodoptera littoralis [1] | control of Heliothis virescens [2] | control of Plutella xylostella [3] | control of Diabrotica balteata [4] | control of Thrips tabaci [5]

CCN(C(=O)c1ccccc1C)c1cccc(C(=O)Nc2c(Cl)cc(C(F)(C(F)(F)F)C(F)(F)C(F)(F)F)cc2Cl)c1OC (stereo not drawn) [D27]
at least 80%: control of Spodoptera littoralis [1] | control of Plutella xylostella [3] | control of Diabrotica balteata [4] | control of Thrips tabaci [5]

CCN(C(=O)c1ccccc1Cl)c1cccc(C(=O)Nc2c(Cl)cc(C(F)(C(F)(F)F)C(F)(F)C(F)(F)F)cc2Cl)c1OC (stereo not drawn) [D28]
at least 80%: control of Spodoptera littoralis [1] | control of Heliothis virescens [2] | control of Plutella xylostella [3] | control of Diabrotica balteata [4] | control of Thrips tabaci [5]

CCN(C(=O)c1ccc(C)cc1)c1cccc(C(=O)Nc2c(Cl)cc(C(F)(C(F)(F)F)C(F)(F)C(F)(F)F)cc2Cl)c1OC (stereo not drawn) [D29]
at least 80%: control of Spodoptera littoralis [1] | control of Heliothis virescens [2] | control of Plutella xylostella [3] | control of Diabrotica balteata [4] | control of Thrips tabaci [5]

CCN(C(=O)c1ccc(F)cc1C)c1cccc(C(=O)Nc2c(Cl)cc(C(F)(C(F)(F)F)C(F)(F)C(F)(F)F)cc2Cl)c1OC (stereo not drawn) [D30]
at least 80%: control of Spodoptera littoralis [1] | control of Heliothis virescens [2] | control of Plutella xylostella [3] | control of Diabrotica balteata [4] | control of Thrips tabaci [5]

CCN(C(=O)c1ccco1)c1cccc(C(=O)Nc2c(Cl)cc(C(F)(C(F)(F)F)C(F)(F)C(F)(F)F)cc2Cl)c1OC (stereo not drawn) [D33]
at least 80%: control of Spodoptera littoralis [1] | control of Thrips tabaci [5]

CCN(C(=O)c1ccc(OC(F)(F)F)cc1)c1cccc(C(=O)Nc2c(Cl)cc(C(F)(C(F)(F)F)C(F)(F)C(F)(F)F)cc2Cl)c1OC (stereo not drawn) [D34]
at least 80%: control of Spodoptera littoralis [1] | control of Thrips tabaci [5]

CCN(C(=O)c1ccc(F)c(C(F)(F)F)c1)c1cccc(C(=O)Nc2c(Cl)cc(C(F)(C(F)(F)F)C(F)(F)C(F)(F)F)cc2Cl)c1OC (stereo not drawn) [D35]
at least 80%: control of Spodoptera littoralis [1] | control of Heliothis virescens [2] | control of Thrips tabaci [5]

CCN(C(=O)c1ccc(C(F)(F)F)cc1)c1cccc(C(=O)Nc2c(Cl)cc(C(F)(C(F)(F)F)C(F)(F)C(F)(F)F)cc2Cl)c1OC (stereo not drawn) [D36]
at least 80%: control of Spodoptera littoralis [1] | control of Heliothis virescens [2] | control of Plutella xylostella [3] | control of Diabrotica balteata [4] | control of Thrips tabaci [5]

CCN(C(=O)c1cccc(F)c1F)c1cccc(C(=O)Nc2c(Cl)cc(C(F)(C(F)(F)F)C(F)(F)C(F)(F)F)cc2Cl)c1OC (stereo not drawn) [D41]
at least 80%: control of Spodoptera littoralis [1] | control of Heliothis virescens [2] | control of Plutella xylostella [3] | control of Diabrotica balteata [4]

CCN(C(=O)c1ccc(F)cc1F)c1cccc(C(=O)Nc2c(Cl)cc(C(F)(C(F)(F)F)C(F)(F)C(F)(F)F)cc2Cl)c1OC (stereo not drawn) [D42]
at least 80%: control of Spodoptera littoralis [1] | control of Heliothis virescens [2] | control of Plutella xylostella [3] | control of Diabrotica balteata [4]

COc1c(NC(=O)c2ccc([N+](=O)[O-])c(C)c2)cccc1C(=O)Nc1c(Cl)cc(C(F)(C(F)(F)F)C(F)(F)F)cc1Cl [E26]
at least 80%: control of Spodoptera littoralis [1] | control of Heliothis virescens [2] | control of Plutella xylostella [3] | control of Diabrotica balteata [4]

COc1c(NC(=O)c2ccc(S(C)(=O)=O)cc2Cl)cccc1C(=O)Nc1c(C)cc(C(F)(C(F)(F)F)C(F)(F)C(F)(F)F)cc1C (stereo not drawn) [F16]
at least 80%: control of Spodoptera littoralis [1] | control of Heliothis virescens [2] | control of Plutella xylostella [3] | control of Diabrotica balteata [4]

CCN(C(=O)c1ccc([N+](=O)[O-])c(C)c1)c1cccc(C(=O)Nc2c(Cl)cc(C(F)(C(F)(F)F)C(F)(F)C(F)(F)F)cc2Br)c1OC (stereo not drawn) [M2]
at least 80%: control of Spodoptera littoralis [1] | control of Heliothis virescens [2] | control of Plutella xylostella [3] | control of Diabrotica balteata [4]

— US20120295907A1, “INSECTICIDAL COMPOUNDS” (SYNGENTA CROP PROTECTION, LLC, priority 2009, published 2012)
